These are yes or no findings as the source states them, for the method shown. Binding seen in cells or lysates may run through a third protein. Some results given as binding are weak or reduced against the parent protein; the word gives no strength. Where a sequence is shown, tags or fusion partners need not be part of it.

Chains of the proteins cited; added tags and fusions are not shown.
UniProt Q95V55: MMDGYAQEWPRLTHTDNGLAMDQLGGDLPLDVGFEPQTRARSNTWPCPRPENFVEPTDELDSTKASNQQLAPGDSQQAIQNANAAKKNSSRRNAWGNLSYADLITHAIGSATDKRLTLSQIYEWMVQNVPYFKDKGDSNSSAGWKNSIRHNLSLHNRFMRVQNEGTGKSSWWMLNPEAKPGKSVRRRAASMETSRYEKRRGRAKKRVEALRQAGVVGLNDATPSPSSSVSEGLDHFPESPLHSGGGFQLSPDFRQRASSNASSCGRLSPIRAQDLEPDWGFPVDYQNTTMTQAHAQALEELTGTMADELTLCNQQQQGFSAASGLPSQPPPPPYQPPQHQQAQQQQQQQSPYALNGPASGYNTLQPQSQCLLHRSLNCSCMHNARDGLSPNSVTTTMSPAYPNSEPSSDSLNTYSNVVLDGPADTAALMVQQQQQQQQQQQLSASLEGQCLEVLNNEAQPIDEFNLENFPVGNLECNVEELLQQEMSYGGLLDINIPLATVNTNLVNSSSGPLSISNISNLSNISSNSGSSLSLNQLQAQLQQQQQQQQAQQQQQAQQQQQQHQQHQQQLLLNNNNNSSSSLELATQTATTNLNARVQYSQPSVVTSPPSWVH

Experimental findings from article PMC4608839 are described below.

The experiment has as its target T1, HA-tagged Pelle (HA-Pll) (Drosophila melanogaster) (UniProt Q05652).
T1 sequence: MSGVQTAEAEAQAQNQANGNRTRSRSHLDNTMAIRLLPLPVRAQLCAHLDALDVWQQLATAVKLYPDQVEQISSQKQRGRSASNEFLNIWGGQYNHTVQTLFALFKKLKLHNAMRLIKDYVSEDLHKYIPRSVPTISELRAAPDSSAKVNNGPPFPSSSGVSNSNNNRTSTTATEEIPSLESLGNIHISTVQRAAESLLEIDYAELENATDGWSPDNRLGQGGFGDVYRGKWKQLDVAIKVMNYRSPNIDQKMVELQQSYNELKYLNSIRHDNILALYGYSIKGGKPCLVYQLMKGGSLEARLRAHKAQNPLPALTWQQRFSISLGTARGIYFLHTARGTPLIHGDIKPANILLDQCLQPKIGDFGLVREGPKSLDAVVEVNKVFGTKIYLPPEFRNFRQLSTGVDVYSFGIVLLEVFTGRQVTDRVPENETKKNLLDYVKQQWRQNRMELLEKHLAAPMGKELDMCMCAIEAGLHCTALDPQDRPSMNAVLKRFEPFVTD
The experiment can be described thus: co-IP; HA-Pll and Flag-dFoxO co-transfected with Actin-GAL4 in Drosophila S2R+ cells; lysed in RIPA buffer with PMSF 48 hours after transfection; which protein was precipitated is not told.

“Flag-tagged dFoxO (Flag-dFoxO) (from UniProt Q95V55 1-613)”: the binding result is listed as “binds”.
